These results are taken from patent publication US20120202876A1, “METHODS OF TREATING DISEASES WITH PROANTHOCYANIDIN OLIGOMERS SUCH AS CROFELEMER” (NAPO PHARMACEUTICALS, INC., priority 2009, published 2012).

Sequences of proteins named here, by UniProt entry; tags and fusion partners are left off.
UniProt P13569, whole entry: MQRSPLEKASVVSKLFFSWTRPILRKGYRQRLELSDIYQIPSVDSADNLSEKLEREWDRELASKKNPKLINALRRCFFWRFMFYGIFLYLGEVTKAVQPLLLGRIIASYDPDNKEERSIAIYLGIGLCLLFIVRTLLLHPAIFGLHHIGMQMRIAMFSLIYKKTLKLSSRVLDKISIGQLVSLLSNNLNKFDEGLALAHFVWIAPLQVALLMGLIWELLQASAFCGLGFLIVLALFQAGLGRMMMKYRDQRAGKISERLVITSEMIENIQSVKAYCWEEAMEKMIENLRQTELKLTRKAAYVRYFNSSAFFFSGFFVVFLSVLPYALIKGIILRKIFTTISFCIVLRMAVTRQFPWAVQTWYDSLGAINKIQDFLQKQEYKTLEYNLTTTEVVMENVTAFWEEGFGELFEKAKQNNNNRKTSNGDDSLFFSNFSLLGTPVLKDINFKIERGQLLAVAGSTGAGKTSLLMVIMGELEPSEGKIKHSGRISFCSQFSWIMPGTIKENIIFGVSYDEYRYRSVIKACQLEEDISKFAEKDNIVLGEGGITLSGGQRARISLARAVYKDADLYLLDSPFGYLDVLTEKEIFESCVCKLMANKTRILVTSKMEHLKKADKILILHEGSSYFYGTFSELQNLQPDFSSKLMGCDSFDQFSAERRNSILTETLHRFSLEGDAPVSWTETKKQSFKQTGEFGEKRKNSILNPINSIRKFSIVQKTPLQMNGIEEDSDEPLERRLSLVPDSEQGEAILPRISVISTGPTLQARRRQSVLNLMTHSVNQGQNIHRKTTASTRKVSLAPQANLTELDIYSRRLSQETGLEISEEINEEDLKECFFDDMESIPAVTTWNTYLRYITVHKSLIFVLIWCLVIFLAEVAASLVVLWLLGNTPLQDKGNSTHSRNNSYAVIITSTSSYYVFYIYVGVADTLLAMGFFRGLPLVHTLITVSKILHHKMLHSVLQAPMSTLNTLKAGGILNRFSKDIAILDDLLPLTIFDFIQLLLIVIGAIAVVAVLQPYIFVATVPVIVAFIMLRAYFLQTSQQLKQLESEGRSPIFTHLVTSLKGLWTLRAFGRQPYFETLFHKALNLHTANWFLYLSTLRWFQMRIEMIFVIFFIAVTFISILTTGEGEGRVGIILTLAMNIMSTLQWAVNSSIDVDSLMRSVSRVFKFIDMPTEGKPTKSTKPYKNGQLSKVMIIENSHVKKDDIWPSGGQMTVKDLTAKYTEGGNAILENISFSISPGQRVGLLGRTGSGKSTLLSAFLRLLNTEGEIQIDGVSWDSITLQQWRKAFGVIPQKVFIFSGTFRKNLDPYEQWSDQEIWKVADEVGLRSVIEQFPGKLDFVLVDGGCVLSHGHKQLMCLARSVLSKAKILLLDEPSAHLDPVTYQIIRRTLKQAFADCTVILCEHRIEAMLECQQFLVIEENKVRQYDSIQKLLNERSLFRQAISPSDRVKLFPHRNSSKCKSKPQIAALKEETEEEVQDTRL

Each structure is given as a SMILES string. For part of its entries the source gives two or more results. Only these are listed. The source may hold further records. The values listed for one entry differ for a reason that is not stated; they may come from other doses, times, organisms or constructs than stated.

The test deals with human CFTR (Homo sapiens, UniProt P13569). Put plainly: Apical membrane Cl− current in CFTR-expressing FRT cells. The settings on record: CFTR activated by CPT-cAMP; no crofelemer pre-treatment.

As for `O=C(O)c1ccc(/C=C2\SC(=S)N(c3cccc(C(F)(F)F)c3)C2=O)cc1`, the “maximal inhibition of CFTR Cl− current” value was “approximately 100% and 100%”. Take `O=C(CNc1ccc2ccccc2c1)N/N=C/c1cc(Br)c(O)c(Br)c1O` [GlyH-101]: the “maximal inhibition of CFTR Cl− current” value is “approximately 100% and 100%”.
